# Measurements from PubChem BioAssay AID1794845 (National Center for Advancing Translational Sciences (NCATS), 2023).
# Amino acid sequences for entries named in this document (tags omitted). A change or cut given only in a name is not applied to a line headed by its entry.
# UniProt C7C422: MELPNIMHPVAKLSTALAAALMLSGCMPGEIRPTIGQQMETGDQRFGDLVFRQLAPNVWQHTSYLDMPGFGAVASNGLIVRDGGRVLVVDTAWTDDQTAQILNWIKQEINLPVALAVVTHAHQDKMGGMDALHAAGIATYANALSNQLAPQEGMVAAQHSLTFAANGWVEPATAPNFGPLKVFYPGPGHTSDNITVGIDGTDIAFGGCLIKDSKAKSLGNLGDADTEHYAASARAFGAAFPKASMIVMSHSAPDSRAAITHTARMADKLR
# The whole screen tested about 6,900 compounds, of which fewer than 10 were called active. The call rests on the fitted dose curve; in most records, active means well fitted curve in the direction sought with a large enough effect; inconclusive means small, poorly fitted or top-dose-only effect, or another doubt; inactive means no such curve, though single readings can be large or run the other way. This is one part of the list.
# Molecular target: Metallo-beta-lactamase type 2 (Klebsiella pneumoniae) (UniProt C7C422)
# Experiment: qHTS to identify inhibitors of the New Delhi Metallo-beta-lactamase (NDM): primary screen against the NCATS Gemini Collection; further: % of control where 0% means no effect
# Details: NDM-1 enzyme, meropenem hydrolysis, absorbance 300 nm; at 38.4 µM (top of the series) unless noted
# Procedure, shortened: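 Meropenem hydrolysis (50 uM final) by 2 nM NDM-1 read as 300 nm absorbance after 30 min, following >30 min compound–enzyme preincubation in HEPES pH 7.0 with 1 uM ZnSO4 and 0.01% Tween20.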
row,Structure (SMILES),activity % (negative = inhibition)
1,O=C(CCc1ccc2c(c1)OCO2)N[C@H](c1ccccn1)C1CC(O)C1 (stereo partly drawn),inactive: -3.06%
2,O=C1NCc2ccccc2CC12CCN(Cc1ccsc1)C2 (stereo not drawn),inactive: -1.5%
3,COC1(c2ccccc2)CCN(C(=O)C2CCCN(C(=O)N(C)C)C2)CC1 (stereo not drawn),inactive: -2.06%
4,C=CCc1ccccc1OCCN(C)Cc1cc2ccc(F)cc2[nH]c1=O,inactive: -0.29%
5,O=C(O)c1cccnc1CN1CCCC(c2nc(-c3ccccc3)no2)C1 (stereo not drawn),inactive: 3.52%
6,COCCOCc1nc(C2CCCCN2C(=O)c2ccncc2)no1 (stereo not drawn),inactive: -0.919%
7,C#CCN(C)Cc1nc(C2(O)CCN(C(=O)c3ccccc3F)CC2)cs1,inactive: -4.21% [at 57.5 µM]
8,C[S+](=O)([O-])N1CC2(CCCN2CC2CC2)Cc2ccccc21 (stereo not drawn),inactive: 5.85%
9,CN1Cc2ncnc(N3CCC(c4ccccc4)CC3)c2CN(c2ccccc2)C1=O,inactive: 8.67%
10,Fc1ccccc1CN1CCC[C@H]1c1nc(-c2ccnc(N3CCOCC3)c2)no1,inactive: -5.98% [at 57.5 µM]
11,CN1CC(c2ccccc2)CC2(CCN(C(=O)c3ccccc3)CC2)C1 (stereo not drawn),inactive: 7.74%
12,CCn1ccnc1CN(C)Cc1cn(-c2ccccc2C)nc1-c1ccc(OC)c(F)c1,inactive: -3.73%
13,c1ccc(-c2nc(C3CC3)no2)c(OC2CCNC2)c1 (stereo not drawn),inactive: -1.06%
14,COc1ccc(CNC(=O)CC[C@]23CC[C@](C)(O)C[C@H]2C(C)(C)C[C@@H]3NC2CCOCC2)cc1,inactive: -1.94%
15,COc1ccc(-c2nc(C(C)C)nc3c2CCN([S+](=O)([O-])c2c(C)noc2C)CC3)cc1,inactive: 1.53%
16,COc1nc2nc(CCc3ccccc3)n(C)c2cc1-c1cncnc1,inactive: 4.81% [at 57.5 µM]
17,CC(C)C(=O)N1CCN(CCn2nc3n(c2=O)CCCC3)CC1,inactive: 1.52% [at 57.5 µM]
18,O=C1C[C@H]2CC[C@@H](CN1)N2Cc1ccc(OCc2ccccc2)cc1,inactive: 28.7%
19,Cc1nc2c(c(-c3ccc(Cl)cc3)n1)CCN(C(=O)Cc1cccc(Cl)c1)CC2,inactive: 0.848%
20,CCC(=O)N1CCC(n2nccc2NC(=O)Nc2ccccc2Cl)CC1,inactive: -3.68%
21,COc1ccc(C(=O)Nc2ccc([C@H]3OCC(=O)N[C@@H]3CO)cc2)cc1,inactive: 8.38% [at 57.5 µM]
22,O[C@@H]1CO[C@H]2[C@@H]1OC[C@@H]2n1nnnc1SCc1ccco1,inactive: 1.89% [at 57.5 µM]
23,CCn1ccnc1CN1CCC(Oc2ccccc2OC)(C(=O)O)CC1,inactive: -4.14%

# 2 of the compounds above, with bars between the fields:
row | Structure (SMILES) | activity % (negative = inhibition)
10 | Fc1ccccc1CN1CCC[C@H]1c1nc(-c2ccnc(N3CCOCC3)c2)no1 | inactive: -5.98% [at 57.5 µM]
11 | CN1CC(c2ccccc2)CC2(CCN(C(=O)c3ccccc3)CC2)C1 (stereo not drawn) | inactive: 7.74%
